Test system: Staphylococcus aureus
Test: Agar diffusion method-2 (cell-free solution)
Assay type: cell-based
Details: colonies as cell-free solution in holes of TSA; ddH2O control 8
Experimental: Firstly, the CFSs (containing metabolites) were prepared. Besides, when probiotics break down fiber and convert the fiber into metabolites, the metabolites are postbiotics.
Next, the pathogenic bacteria described above were also cultured with 37° C. until the concentration thereof reached 1×10^8 CFU/mL, respectively. 100 μL bacterial solutions of the pathogenic bacteria described above were evenly plated on Tryptone Soy Agar (TSA) and stay for 10 minutes. Then, tips were used to form several holes in the TSA. Subsequently, 100 μL bacterial solutions of the colonies described above were added into the holes and then cultured at 37° C. for 12 hours.
This experiment is designed that the CFSs in the holes prevent the pathogenic bacteria on the plates from growing. Therefore, the larger zone indicates the better antibacterial effect.

## CC1(C)S[C@@H]2[C@H](NC(=O)[C@H](N)c3ccccc3)C(=O)N2[C@H]1C(=O)O [Ampicillin]
  Inhibitory zone, Staphylococcus Aureus: 19 mm

From patent US20240390438A1, “PROBIOTICS SEPARATED FROM RABBIT FECES AND FOOD CONTAINING PROBIOTICS” (AGENT Innovation Co., Ltd., priority 2021, published 2024)
